From PubChem BioAssay record AID1963582 (Tox21, 2024).

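A p53 response-element beta-lactamase reporter in HCT-116 cells, giving a fitted potency from the FRET ratio after 16 hours. The concentration series mostly goes up to 66 µM. Potency is the fitted concentration that gives half the maximal activation; a lower value means a more potent compound. Calls are based on the whole dose curve, and inconclusive means weak or mixed curves.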

Values are in µM. All entries here are filed as inconclusive. These entries are mostly ones the record files as inconclusive; other results of the assay are not listed here. A potency from a partial, single-point or poor curve is only a rough figure. Some entries filed as inconclusive have a full curve. The first word of each remark tells which way the curve ran; it can be opposite to the aim of the assay.

SMILES,fitted potency (µM),curve as filed
Cc1c2oc3c(C)ccc(C(=O)N[C@@H]4C(=O)N[C@H](C(C)C)C(=O)N5CCC[C@H]5C(=O)N(C)CC(=O)N(C)[C@@H](C(C)C)C(=O)O[C@@H]4C)c3nc-2c(C(=O)N[C@@H]2C(=O)N[C@H](C(C)C)C(=O)N3CCC[C@H]3C(=O)N(C)CC(=O)N(C)[C@@H](C(C)C)C(=O)O[C@@H]2C)c(N)c1=O,0.1775,"fluorescent, full curve"
COc1cc(Nc2c(C#N)cnc3cc(OCCCN4CCN(C)CC4)c(OC)cc23)c(Cl)cc1Cl,15.82,activator
CC(C)(C)c1csc(-c2cc3cc(OCc4ccccc4CC(=O)O)ccc3o2)n1,4.078,-
N#C/C(=C1/SC[C@@H](c2ccc(Cl)cc2Cl)S1)n1ccnc1,14.1,"rising, partial curve, poor fit"
Nc1ccc([N+](=O)[O-])cc1,18.93,fluorescent
C=CCC1=C(C)C(OC(=O)C2C(C=C(C)C)C2(C)C)CC1=O (stereo not drawn),19.59,-
CN(C)C(=S)SC(=S)N(C)C,4.692,"rising, full curve"
CCN1CCC2(CC1)COc1cc3c(cc12)N(C(=O)c1ccc(-c2ccc(-c4nnc(C)o4)cc2C)cc1)CC3,14.98,"rising, full curve"
CCCCC(CC)CN=C(N)NC(N)=NCCCCCCN=C(N)NC(N)=NCC(CC)CCCC (stereo not drawn),19.92,"falling, partial curve"
CN(C)CCCN1c2ccccc2CCc2ccc(Cl)cc21,5.614,"rising, full curve, poor fit"
CCN=c1cc2oc3cc(NCC)c(C)cc3c(-c3ccccc3C(=O)OCC)c-2cc1C,0.5115,"fluorescent, partial curve, poor fit"
CC(C)(c1cc(Cl)c(O)c(Cl)c1)c1cc(Cl)c(O)c(Cl)c1,32.41,"activator, partial curve"
O=C(c1ccccc1)C(Cl)Cl,22.93,"fluorescent, partial curve, poor fit"
c1ccc2c(c1)cc1ccc3cccc4ccc2c1c34,37.05,"fluorescent, partial curve"
CC(C)(C)CC(C)(C)c1ccc(O)cc1,22.35,-
Nc1ncc([N+](=O)[O-])s1,46.13,"falling, single point"
CC[C@H](C)C(=O)O[C@H]1C[C@@H](C)C=C2C=C[C@H](C)[C@H](CC[C@@H]3C[C@@H](O)CC(=O)O3)[C@H]21,29.28,"rising, partial curve"
CCCCCCOC(=O)NC(=N)c1ccc(NCc2nc3cc(C(=O)N(CCC(=O)OCC)c4ccccn4)ccc3n2C)cc1,15.82,"rising, partial curve"
Oc1cc(Cl)c(Cl)c(Cl)c1Cl,44.69,"activator, single point"
O=C(c1ccc(OCCN2CCCCC2)cc1)c1c(-c2ccc(O)cc2)sc2cc(O)ccc12,51.4,single point
CCCCCCCCCCCCCCCC[N+](C)(C)Cc1ccccc1,46.57,single point
C[C@@H](CN(C)C)CN1c2ccccc2Sc2ccccc21,1.257,"rising, partial curve"
c1cc(OCC2CO2)ccc1Cc1ccc(OCC2CO2)cc1 (stereo not drawn),28.99,"fluorescent, partial curve"
CC(=O)c1ccc2ccc3ccccc3c2c1,45.49,activator
CCCCCCCCCCCCCCn1cc[n+](C)c1,6.395,"fluorescent, partial curve"
CCCCCCC[CH2][Sn]([Cl])([Cl])[CH2]CCCCCCC,5.132,"rising, partial curve, poor fit"
Nc1ccc2ccccc2c1S(=O)(=O)O,0.4159,"falling, single point"
CCN(Cc1cccnc1)C(=O)c1cccc(Cl)c1[C@]1(C)C(=O)N(Cc2ccc(OC)cc2OC)c2ccc(Cl)cc21,6.776,"rising, partial curve, poor fit"
N#CSCSC#N,52.52,"falling, single point"
COC(=O)Nc1nc2ccc(C(=O)c3ccccc3)cc2[nH]1,4.459,"fluorescent, partial curve"
O=C1c2ccccc2C(=O)c2c(O)c(O)cc(O)c21,45.75,"activator, single point"
O=C1OC(c2ccc(O)cc2)(c2ccc(O)cc2)c2ccccc21,40.52,"fluorescent, partial curve"
[Hg+2].[I-].[I-],51.34,"falling, single point"
CCCCCCCC[N+](CCCCCCCC)(CCCCCCCC)CCCCCCCC,10.22,cytotoxic
O=C1C(Cl)=C(Cl)C(=O)c2ccccc21,9.161,"rising, full curve, poor fit"
CCN(CC)CCCN(c1ccccc1)C1Cc2ccccc2C1,7.93,"rising, partial curve"

The last 3 entries again:

CCCCCCCC[N+](CCCCCCCC)(CCCCCCCC)CCCCCCCC gave fitted potency 10.22 µM (cytotoxic).
O=C1C(Cl)=C(Cl)C(=O)c2ccccc21 gave fitted potency 9.161 µM (rising, full curve, poor fit).
CCN(CC)CCCN(c1ccccc1)C1Cc2ccccc2C1 gave fitted potency 7.93 µM (rising, partial curve).